PubChem BioAssay AID1259254, NCATS | 2017
Aim: 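Gene knock-downs that lead to re-replication, shown by excess G2 DNA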 (primary screen). Cells: human HCT116 colorectal cancer cells. Knock-down reagent: single siRNA against human genes. Timing: 3 days. Read-out: 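Imaged Hoechst DNA stain sorts each cell into a cycle phase by DNA amount; per plate, G2 fraction set to 0% for non-targeting and 100% for GMNN siRNA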. Scale: G2 robust z-score and G2 cells, % of GMNN control: higher = more G2 cells, more excess DNA replication; raw share of cells in G2: higher = larger share of cells with G2 DNA content. Active means: 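An siRNA counts as active if its G2 robust z-score lies at least 5 MADs above the screen median; here such calls match roughly 38% of GMNN control or more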.
This is a random part of about 59,000 reagents. Of all reagents, about 1,550 (2.6%) were called active. 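G2 share is only a proxy for re-replication; each gene was hit by three separate siRNAs, and active genes were retested.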 Raw values vary from plate to plate and are shown uncorrected. A number with no mark means an inactive call. Not given: the amount of reagent.

gene | PubChem SID | G2 robust z-score | G2 cells, % of GMNN control | raw share of cells in G2 (%)
ENPP7 (ectonucleotide pyrophosphatase/phosphodiesterase 7) | SID160731102 | -0.828 | -2.86 | 3.84
ENPP7 (ectonucleotide pyrophosphatase/phosphodiesterase 7) | SID160764178 | 0.793 | 8.55 | 9.6
ENPP7 (ectonucleotide pyrophosphatase/phosphodiesterase 7) | SID160764179 | -0.474 | -0.367 | 4.15
PDIA3 (protein disulfide isomerase family A member 3) | SID160774614 | 2.36 | 19.6 | 10.6
PDIA3 (protein disulfide isomerase family A member 3) | SID160774615 | -0.763 | -2.4 | 4.35
PDIA3 (protein disulfide isomerase family A member 3) | SID160774616 | 1.15 | 11 | 9.25
EVC2 (EvC ciliary complex subunit 2) | SID160757201 | -0.352 | 0.493 | 4.36
EVC2 (EvC ciliary complex subunit 2) | SID160757202 | 0.62 | 7.33 | 5.43
EVC2 (EvC ciliary complex subunit 2) | SID160757203 | 0.455 | 6.17 | 4.81
TCF7L2 (transcription factor 7 like 2) | SID160717803 | 1.74 | 15.2 | 10.2
TCF7L2 (transcription factor 7 like 2) | SID160717804 | -0.539 | -0.824 | 4.36
TCF7L2 (transcription factor 7 like 2) | SID160717805 | -1.31 | -6.26 | 2.06
DNALI1 (dynein axonemal light intermediate chain 1) | SID160719357 | -0.172 | 1.76 | 6.34
DNALI1 (dynein axonemal light intermediate chain 1) | SID160719359 | -0.0165 | 2.85 | 5.41
DNALI1 (dynein axonemal light intermediate chain 1) | SID160719360 | -1.02 | -4.23 | 2.69
PEPD (peptidase D) | SID160714099 | -0.435 | -0.0964 | 3.47
PEPD (peptidase D) | SID160714100 | 1.14 | 11 | 7.61
PEPD (peptidase D) | SID160714101 | 0.685 | 7.79 | 7.33
POU5F2 (POU domain class 5, transcription factor 2) | SID160732483 | -0.635 | -1.5 | 2.04
POU5F2 (POU domain class 5, transcription factor 2) | SID160757310 | -0.411 | 0.0762 | 4.2
POU5F2 (POU domain class 5, transcription factor 2) | SID160757311 | -0.353 | 0.485 | 3.26
NCAPG (non-SMC condensin I complex subunit G) | SID160747533 | 1.49 | 13.5 | 10.4
NCAPG (non-SMC condensin I complex subunit G) | SID160747534 | -0.634 | -1.49 | 3.94
NCAPG (non-SMC condensin I complex subunit G) | SID160747535 | -0.00891 | 2.9 | 3.46
LRRC25 (leucine rich repeat containing 25) | SID160756465 | -0.956 | -3.76 | 2.76
LRRC25 (leucine rich repeat containing 25) | SID160756466 | -0.827 | -2.85 | 2.2
LRRC25 (leucine rich repeat containing 25) | SID160756467 | -0.141 | 1.97 | 3.29

Continued (5 carried over from the part before).
gene | PubChem SID | G2 robust z-score | G2 cells, % of GMNN control | raw share of cells in G2 (%)
NCAPG (non-SMC condensin I complex subunit G) | SID160747534 | -0.634 | -1.49 | 3.94
NCAPG (non-SMC condensin I complex subunit G) | SID160747535 | -0.00891 | 2.9 | 3.46
LRRC25 (leucine rich repeat containing 25) | SID160756465 | -0.956 | -3.76 | 2.76
LRRC25 (leucine rich repeat containing 25) | SID160756466 | -0.827 | -2.85 | 2.2
LRRC25 (leucine rich repeat containing 25) | SID160756467 | -0.141 | 1.97 | 3.29
FAM111B (FAM111 trypsin like peptidase B) | SID160765260 | 4 | 31.1 | 14.7
FAM111B (FAM111 trypsin like peptidase B) | SID160765261 | 0.617 | 7.31 | 6.46
FAM111B (FAM111 trypsin like peptidase B) | SID160765263 | 0.61 | 7.26 | 7.11
SLC22A8 | SID160722075 | -0.433 | -0.0802 | 4.72
SLC22A8 | SID160722076 | -0.322 | 0.702 | 3.44
SLC22A8 | SID160722077 | 0.427 | 5.97 | 7.46
TEKT2 (tektin 2) | SID160738640 | -0.378 | 0.305 | 6.3
TEKT2 (tektin 2) | SID160738641 | -0.688 | -1.88 | 3.56
TEKT2 (tektin 2) | SID160738642 | -0.795 | -2.63 | 3.13
BIVM (basic, immunoglobulin-like variable motif containing) | SID160742292 | 0.614 | 7.29 | 6.21
BIVM (basic, immunoglobulin-like variable motif containing) | SID160742293 | 2.07 | 17.5 | 11.6
BIVM (basic, immunoglobulin-like variable motif containing) | SID160742294 | -0.288 | 0.94 | 3.5
TROAP (trophinin associated protein) | SID160724151 | -1.11 | -4.83 | 3.15
TROAP (trophinin associated protein) | SID160724159 | 1.14 | 11 | 8.52
TROAP (trophinin associated protein) | SID160724166 | 3.38 | 26.8 | 13.1
ZNG1E (Zn regulated GTPase metalloprotein activator 1E) | SID160732699 | -1.09 | -4.73 | 1.71
ZNG1E (Zn regulated GTPase metalloprotein activator 1E) | SID160732700 | -0.137 | 2 | 3.81
ZNG1E (Zn regulated GTPase metalloprotein activator 1E) | SID160761544 | -0.13 | 2.05 | 5.05
WIPF1 (WAS/WASL interacting protein family member 1) | SID160718807 | -0.334 | 0.62 | 5.41
WIPF1 (WAS/WASL interacting protein family member 1) | SID160718808 | 1.31 | 12.2 | 8.72
WIPF1 (WAS/WASL interacting protein family member 1) | SID160734902 | 0.346 | 5.4 | 5.26
DVL2 (dishevelled segment polarity protein 2) | SID160757437 | -0.459 | -0.262 | 5.18
DVL2 (dishevelled segment polarity protein 2) | SID160757448 | -0.479 | -0.402 | 3.94
DVL2 (dishevelled segment polarity protein 2) | SID160757459 | 0.24 | 4.66 | 5.35
PIBF1 (progesterone immunomodulatory binding factor 1) | SID160728487 | -1.16 | -5.21 | 2.97
PIBF1 (progesterone immunomodulatory binding factor 1) | SID160728488 | -0.7 | -1.96 | 3.13
PIBF1 (progesterone immunomodulatory binding factor 1) | SID160728489 | 0.79 | 8.52 | 6.51
PCMT1 (protein-L-isoaspartate (D-aspartate) O-methyltransferase) | SID160713924 | 0.305 | 5.11 | 7.14
PCMT1 (protein-L-isoaspartate (D-aspartate) O-methyltransferase) | SID160713925 | -0.712 | -2.04 | 3.92
PCMT1 (protein-L-isoaspartate (D-aspartate) O-methyltransferase) | SID160713926 | 0.00927 | 3.03 | 4.23
HLA-DMB (major histocompatibility complex, class II, DM beta) | SID160774982 | -0.391 | 0.218 | 5.4
HLA-DMB (major histocompatibility complex, class II, DM beta) | SID160774984 | 0.0928 | 3.62 | 5.41
HLA-DMB (major histocompatibility complex, class II, DM beta) | SID160774985 | 0.505 | 6.52 | 6.08
PRLHR (prolactin releasing hormone receptor) | SID160773166 | 1.44 | 13.1 | 10.5
PRLHR (prolactin releasing hormone receptor) | SID160773176 | -0.728 | -2.16 | 3.76
PRLHR (prolactin releasing hormone receptor) | SID160773185 | 0.478 | 6.33 | 5.21
RTF1 (RTF1 homolog, Paf1/RNA polymerase II complex component) | SID160735610 | -1.03 | -4.3 | 3.3
RTF1 (RTF1 homolog, Paf1/RNA polymerase II complex component) | SID160735611 | -0.877 | -3.2 | 2.81
RTF1 (RTF1 homolog, Paf1/RNA polymerase II complex component) | SID160735612 | -1.21 | -5.57 | 1.09
B4GALT7 (beta-1,4-galactosyltransferase 7) | SID160730371 | 5.13 (active) | 39 | 17.2
B4GALT7 (beta-1,4-galactosyltransferase 7) | SID160730373 | -0.828 | -2.86 | 5.22
B4GALT7 (beta-1,4-galactosyltransferase 7) | SID160730374 | -0.249 | 1.21 | 4.28
